No constants are given. Whether binding was seen depends on the method and setting. Some binding calls cover weakened binding; strength is not graded here.
Biological target: wild type T. thermophilus GroEL expressed in E. coli cells (T. thermophilus) (UniProt Q5SLM2)
Experiment: SEC; data not shown; distribution compared with that of Met-less GroEL on Sephacryl S-400

B1: wild type T. thermophilus GroEL expressed in E. coli cells (protein, UniProt Q5SLM2 1-543)
chain: MAKILVFDEAARRALERGVNAVANAVKVTLGPRGRNVVLEKKFGSPTITKDGVTVAKEVELEDHLENIGAQLLKEVASKTNDVAGDGTTTATVLAQAIVREGLKNVAAGANPLALKRGIEKAVEAAVEKIKALAIPVEDRKAIEEVATISANDPEVGKLIADAMEKVGKEGIITVEESKSLETELKFVEGYQFDKGYISPYFVTNPETMEAVLEDAFILIVEKKVSNVRELLPILEQVAQTGKPLLIIAEDVEGEALATLVVNKLRGTLSVAAVKAPGFGDRRKEMLKDIAAVTGGTVISEELGFKLENATLSMLGRAERVRITKDETTIVGGKGKKEDIEARINGIKKELETTDSEYAREKLQERLAKLAGGVAVIRVGAATETELKEKKHRFEDALNATRAAVEEGIVPGGGVTLLRAISAVEELIKKLEGDEATGAKIVRRALEEPARQIAENAGYEGSVIVQQILAETKNPRYGFNAATGEFVDMVEAGIVDPAKVTRSALQNAASIGALILTTEAVVAEKPEKKESTPASAGAGDMDF
binding: binds

From paper PMC7713045
